{"source": "PubChem BioAssay AID1259308 (NCATS, 2017)", "assay": "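Knock-downs that increase output of a recombinant reporter protein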 (primary screen)", "cell system": "human HEK293 embryonic kidney cells stably expressing firefly luciferase (HEK-CMV-Luc2-Hygro)", "reagent": "single siRNA against human genes, 0.8 pmol siRNA per well", "time to read-out": "72 h", "detection": "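Luciferase light (ONE-Glo) measured on one replicate plate set and viability (CellTiter-Glo) on the other, scaled to a negative control siRNA, with robust z-scores and luciferase per cell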", "reading the numbers": "total luciferase, z-score: higher = more reporter protein produced", "hit rule": "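An siRNA counts as active if its total luciferase robust z-score exceeds 3; genes with two or more such siRNAs out of three were retested with fresh siRNAs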", "meaning of the calls": "active = raised luciferase; inactive = no rise", "note": "This is an unselected part of about 59,000 reagents. Over the whole deposit, about 1,510 (2.6%) got an active call. 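Calls use total luciferase alone and ignore viability, so some active siRNAs may act by altering cell number.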 A number with no mark means an inactive call. Reagents against one gene are numbered here. Not all columns of the deposit are shown."}
{"target gene": "LRRC20", "reagent": 1, "total luciferase, z-score": -0.64}
{"target gene": "LRRC20", "reagent": 2, "total luciferase, z-score": -0.455}
{"target gene": "LRRC20", "reagent": 3, "total luciferase, z-score": -2.15}
{"target gene": "TTLL3", "reagent": 1, "total luciferase, z-score": -0.288}
{"target gene": "TTLL3", "reagent": 2, "total luciferase, z-score": 0.3}
{"target gene": "TTLL3", "reagent": 3, "total luciferase, z-score": 1.29}
{"target gene": "CNTNAP1", "reagent": 1, "total luciferase, z-score": -1.09}
{"target gene": "CNTNAP1", "reagent": 2, "total luciferase, z-score": -1.35}
{"target gene": "CNTNAP1", "reagent": 3, "total luciferase, z-score": "3.56 (active)"}
{"target gene": "CYTH4", "reagent": 1, "total luciferase, z-score": 0.758}
{"target gene": "CYTH4", "reagent": 2, "total luciferase, z-score": 1.42}
{"target gene": "CYTH4", "reagent": 3, "total luciferase, z-score": 0.0348}
{"target gene": "ZNF497", "reagent": 1, "total luciferase, z-score": 1.2}
{"target gene": "ZNF497", "reagent": 2, "total luciferase, z-score": -1.34}
{"target gene": "ZNF497", "reagent": 3, "total luciferase, z-score": -0.569}
{"target gene": "TDP2", "reagent": 1, "total luciferase, z-score": -0.105}
{"target gene": "TDP2", "reagent": 2, "total luciferase, z-score": -0.384}
{"target gene": "TDP2", "reagent": 3, "total luciferase, z-score": -0.268}
{"target gene": "IGF2", "reagent": 1, "total luciferase, z-score": 0.328}
{"target gene": "IGF2", "reagent": 2, "total luciferase, z-score": -0.935}
{"target gene": "IGF2", "reagent": 3, "total luciferase, z-score": -0.66}
{"target gene": "SLC5A10", "reagent": 1, "total luciferase, z-score": -1.12}
{"target gene": "SLC5A10", "reagent": 2, "total luciferase, z-score": -0.0196}
{"target gene": "SLC5A10", "reagent": 3, "total luciferase, z-score": -2.2}
{"target gene": "TCF23", "reagent": 1, "total luciferase, z-score": 1.07}
{"target gene": "TCF23", "reagent": 2, "total luciferase, z-score": -0.00939}
{"target gene": "TCF23", "reagent": 3, "total luciferase, z-score": -0.00196}
{"target gene": "PRELID3BP10", "reagent": 1, "total luciferase, z-score": 1.15}
{"target gene": "PRELID3BP10", "reagent": 2, "total luciferase, z-score": "3.06 (active)"}
{"target gene": "PRELID3BP10", "reagent": 3, "total luciferase, z-score": "4.59 (active)"}
{"target gene": "PRELID3BP10", "reagent": 4, "total luciferase, z-score": 1.1}
{"target gene": "PRELID3BP10", "reagent": 5, "total luciferase, z-score": -1.35}
{"target gene": "PRELID3BP10", "reagent": 6, "total luciferase, z-score": -1.74}

Entries listed so far marked active:
{"target gene": "CNTNAP1", "reagent": 3, "total luciferase, z-score": "3.56 (active)"}
{"target gene": "PRELID3BP10", "reagent": 2, "total luciferase, z-score": "3.06 (active)"}
{"target gene": "PRELID3BP10", "reagent": 3, "total luciferase, z-score": "4.59 (active)"}
